Data on 1 substance can be found in PMC5715333.

Protein sequences, listed by entry. Tags and fused reporters are not part of them.
UniProt P08151: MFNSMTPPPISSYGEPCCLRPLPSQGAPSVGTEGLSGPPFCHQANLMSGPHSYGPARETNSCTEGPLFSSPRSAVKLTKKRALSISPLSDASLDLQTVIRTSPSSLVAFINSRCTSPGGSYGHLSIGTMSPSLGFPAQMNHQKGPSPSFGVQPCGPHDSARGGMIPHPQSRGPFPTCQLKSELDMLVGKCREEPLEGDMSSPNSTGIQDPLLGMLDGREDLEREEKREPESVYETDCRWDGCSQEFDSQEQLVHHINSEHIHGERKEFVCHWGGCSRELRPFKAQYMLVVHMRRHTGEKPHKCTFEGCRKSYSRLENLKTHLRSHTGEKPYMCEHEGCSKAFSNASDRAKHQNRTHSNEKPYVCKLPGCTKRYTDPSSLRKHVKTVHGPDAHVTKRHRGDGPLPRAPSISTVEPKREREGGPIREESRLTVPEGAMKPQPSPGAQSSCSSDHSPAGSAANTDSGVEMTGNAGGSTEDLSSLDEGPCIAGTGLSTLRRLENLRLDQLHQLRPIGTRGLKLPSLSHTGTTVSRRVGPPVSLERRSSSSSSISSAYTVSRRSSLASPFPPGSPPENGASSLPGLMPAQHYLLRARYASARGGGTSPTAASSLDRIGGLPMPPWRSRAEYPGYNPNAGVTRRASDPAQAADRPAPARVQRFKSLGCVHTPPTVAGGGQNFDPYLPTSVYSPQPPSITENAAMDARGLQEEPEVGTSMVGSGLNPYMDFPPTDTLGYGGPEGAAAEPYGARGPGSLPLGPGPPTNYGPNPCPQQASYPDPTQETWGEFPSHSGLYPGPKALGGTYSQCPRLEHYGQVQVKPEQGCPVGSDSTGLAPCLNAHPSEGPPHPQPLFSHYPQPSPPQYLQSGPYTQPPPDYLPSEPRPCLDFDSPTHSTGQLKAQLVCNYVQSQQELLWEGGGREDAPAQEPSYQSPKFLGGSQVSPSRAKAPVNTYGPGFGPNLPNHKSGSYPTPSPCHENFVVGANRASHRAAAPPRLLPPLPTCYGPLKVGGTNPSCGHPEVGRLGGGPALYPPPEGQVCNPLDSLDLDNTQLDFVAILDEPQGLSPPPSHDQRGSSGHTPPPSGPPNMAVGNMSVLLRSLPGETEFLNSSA

Results are given in words; binding and its absence hold for the method and conditions named. Binding seen in cells or lysates may run through a third protein. Some entries that bind do so weakly or less than the wild type. Tags and fused reporters may be left off the sequences shown.

In the test the target is T1, suppressor of fused homolog (SUFU) (human (endogenous in PANC-1)) (UniProt Q9UMX1).
T1 sequence: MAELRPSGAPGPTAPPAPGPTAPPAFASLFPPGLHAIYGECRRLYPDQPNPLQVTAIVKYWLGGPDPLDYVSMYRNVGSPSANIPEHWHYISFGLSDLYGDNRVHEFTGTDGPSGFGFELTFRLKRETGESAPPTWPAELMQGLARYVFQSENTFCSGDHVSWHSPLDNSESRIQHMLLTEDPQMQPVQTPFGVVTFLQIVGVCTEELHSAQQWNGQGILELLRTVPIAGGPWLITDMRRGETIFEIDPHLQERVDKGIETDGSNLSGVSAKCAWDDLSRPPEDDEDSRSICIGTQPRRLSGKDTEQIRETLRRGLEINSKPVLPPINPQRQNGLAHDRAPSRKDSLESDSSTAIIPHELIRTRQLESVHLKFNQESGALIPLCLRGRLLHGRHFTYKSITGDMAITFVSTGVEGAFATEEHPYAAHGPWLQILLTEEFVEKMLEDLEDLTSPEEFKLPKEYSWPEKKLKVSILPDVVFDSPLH
Kind of test: co-IP; cell lysate; 5 ug anti-Gli1 or anti-SUFU antibody per sample, Protein A/G plus agarose beads, 4°C for 4 h, immunoblot; cells untreated or treated with 10 mM lithium or 10 uM CHIR99021 for 24 h in the presence of 2 uM PYR-41. (In general: A western blot detects proteins with antibodies after separation by electrophoresis.)

As for Gli1 (from UniProt P08151 1-1106), the binding result is reported as “binds”.
